In the supplement of paper PMC10849652:
The list shows a part of the results.

Protein sequences, listed by entry. Tags and fused reporters are not part of them. Lines headed by an entry give the natural chain unless they say otherwise; changes in a name come on top.
UniProt Q99708: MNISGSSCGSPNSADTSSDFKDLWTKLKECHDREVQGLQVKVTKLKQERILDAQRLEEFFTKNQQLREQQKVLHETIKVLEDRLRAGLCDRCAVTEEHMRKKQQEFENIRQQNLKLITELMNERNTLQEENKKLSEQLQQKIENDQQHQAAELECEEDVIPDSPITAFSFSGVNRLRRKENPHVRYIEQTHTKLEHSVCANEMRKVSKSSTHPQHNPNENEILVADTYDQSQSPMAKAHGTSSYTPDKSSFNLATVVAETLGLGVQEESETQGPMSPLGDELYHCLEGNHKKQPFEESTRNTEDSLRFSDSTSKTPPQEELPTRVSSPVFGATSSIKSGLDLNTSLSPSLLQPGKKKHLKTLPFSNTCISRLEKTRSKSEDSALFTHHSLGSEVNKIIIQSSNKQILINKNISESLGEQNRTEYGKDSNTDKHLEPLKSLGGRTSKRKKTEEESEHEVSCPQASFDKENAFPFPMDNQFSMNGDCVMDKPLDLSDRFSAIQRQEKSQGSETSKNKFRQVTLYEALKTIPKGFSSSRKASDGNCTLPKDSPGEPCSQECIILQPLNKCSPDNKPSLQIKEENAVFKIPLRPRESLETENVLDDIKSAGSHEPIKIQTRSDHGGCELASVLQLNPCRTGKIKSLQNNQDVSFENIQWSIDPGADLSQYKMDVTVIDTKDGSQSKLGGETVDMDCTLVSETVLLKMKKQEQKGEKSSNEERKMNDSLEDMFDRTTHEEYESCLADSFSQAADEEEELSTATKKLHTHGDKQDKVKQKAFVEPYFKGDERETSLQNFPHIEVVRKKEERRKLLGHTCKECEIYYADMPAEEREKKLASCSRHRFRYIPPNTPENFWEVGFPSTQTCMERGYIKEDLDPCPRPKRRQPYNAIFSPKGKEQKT
UniProt P18754: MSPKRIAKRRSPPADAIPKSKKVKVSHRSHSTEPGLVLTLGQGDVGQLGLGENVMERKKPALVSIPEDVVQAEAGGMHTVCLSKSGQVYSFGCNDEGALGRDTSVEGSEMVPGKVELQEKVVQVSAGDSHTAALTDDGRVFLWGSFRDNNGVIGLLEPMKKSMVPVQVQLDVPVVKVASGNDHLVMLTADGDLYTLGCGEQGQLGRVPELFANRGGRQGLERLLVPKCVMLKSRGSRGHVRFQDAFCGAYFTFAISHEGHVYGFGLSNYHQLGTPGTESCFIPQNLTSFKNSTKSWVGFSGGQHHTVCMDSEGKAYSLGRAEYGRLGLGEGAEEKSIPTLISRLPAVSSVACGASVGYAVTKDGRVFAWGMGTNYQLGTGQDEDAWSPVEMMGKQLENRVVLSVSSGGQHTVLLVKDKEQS
UniProt Q6JBY9, whole entry, looked up: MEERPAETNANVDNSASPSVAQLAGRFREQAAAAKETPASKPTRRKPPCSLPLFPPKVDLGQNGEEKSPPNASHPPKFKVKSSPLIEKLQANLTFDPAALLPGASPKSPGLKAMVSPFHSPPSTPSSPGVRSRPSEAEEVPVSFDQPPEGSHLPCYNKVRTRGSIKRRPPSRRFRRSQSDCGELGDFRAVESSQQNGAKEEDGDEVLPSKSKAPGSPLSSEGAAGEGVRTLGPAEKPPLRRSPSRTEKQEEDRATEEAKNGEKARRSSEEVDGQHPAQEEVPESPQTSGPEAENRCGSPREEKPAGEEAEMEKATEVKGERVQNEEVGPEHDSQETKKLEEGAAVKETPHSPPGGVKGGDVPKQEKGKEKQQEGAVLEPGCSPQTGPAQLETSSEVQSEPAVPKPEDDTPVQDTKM
UniProt Q8TDY2, whole entry, looked up: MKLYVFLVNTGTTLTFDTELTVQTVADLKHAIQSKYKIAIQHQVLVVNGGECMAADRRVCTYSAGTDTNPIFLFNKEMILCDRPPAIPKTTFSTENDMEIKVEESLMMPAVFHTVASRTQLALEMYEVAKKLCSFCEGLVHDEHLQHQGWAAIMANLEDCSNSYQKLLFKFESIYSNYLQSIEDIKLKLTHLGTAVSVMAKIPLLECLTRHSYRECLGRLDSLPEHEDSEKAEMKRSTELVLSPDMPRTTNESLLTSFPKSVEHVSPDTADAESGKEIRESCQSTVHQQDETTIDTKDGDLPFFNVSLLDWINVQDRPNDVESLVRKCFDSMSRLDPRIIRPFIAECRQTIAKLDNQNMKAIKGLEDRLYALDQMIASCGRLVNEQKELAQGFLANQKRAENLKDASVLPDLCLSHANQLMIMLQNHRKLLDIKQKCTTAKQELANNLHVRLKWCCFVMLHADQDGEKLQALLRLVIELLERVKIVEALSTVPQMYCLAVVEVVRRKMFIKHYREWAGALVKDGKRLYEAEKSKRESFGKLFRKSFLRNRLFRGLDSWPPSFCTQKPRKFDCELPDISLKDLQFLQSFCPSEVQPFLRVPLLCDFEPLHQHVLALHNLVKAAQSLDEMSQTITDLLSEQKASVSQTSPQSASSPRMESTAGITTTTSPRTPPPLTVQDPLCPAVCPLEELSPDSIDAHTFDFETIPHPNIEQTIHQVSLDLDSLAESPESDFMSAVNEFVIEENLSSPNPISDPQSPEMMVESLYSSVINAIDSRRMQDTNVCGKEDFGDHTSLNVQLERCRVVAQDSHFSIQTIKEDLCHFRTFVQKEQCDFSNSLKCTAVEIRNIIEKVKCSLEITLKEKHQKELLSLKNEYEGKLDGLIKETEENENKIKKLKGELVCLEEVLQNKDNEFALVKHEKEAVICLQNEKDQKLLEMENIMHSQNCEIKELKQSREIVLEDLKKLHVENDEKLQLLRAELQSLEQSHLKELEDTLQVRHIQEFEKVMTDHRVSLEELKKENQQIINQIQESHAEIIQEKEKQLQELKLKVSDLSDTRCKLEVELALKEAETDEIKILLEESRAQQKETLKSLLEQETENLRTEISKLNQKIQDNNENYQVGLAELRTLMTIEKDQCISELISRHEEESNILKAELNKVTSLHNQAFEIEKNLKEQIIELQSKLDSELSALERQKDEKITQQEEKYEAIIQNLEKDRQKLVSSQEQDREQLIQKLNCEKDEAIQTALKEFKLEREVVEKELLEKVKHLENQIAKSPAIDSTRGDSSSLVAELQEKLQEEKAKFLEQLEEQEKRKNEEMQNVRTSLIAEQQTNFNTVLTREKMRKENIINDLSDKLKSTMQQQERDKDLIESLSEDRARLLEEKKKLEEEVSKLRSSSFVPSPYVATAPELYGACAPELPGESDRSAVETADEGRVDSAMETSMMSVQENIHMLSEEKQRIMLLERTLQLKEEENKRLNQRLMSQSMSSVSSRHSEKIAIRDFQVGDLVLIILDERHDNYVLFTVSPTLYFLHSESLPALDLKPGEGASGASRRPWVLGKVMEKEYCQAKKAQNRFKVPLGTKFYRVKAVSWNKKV
UniProt Q96AA3: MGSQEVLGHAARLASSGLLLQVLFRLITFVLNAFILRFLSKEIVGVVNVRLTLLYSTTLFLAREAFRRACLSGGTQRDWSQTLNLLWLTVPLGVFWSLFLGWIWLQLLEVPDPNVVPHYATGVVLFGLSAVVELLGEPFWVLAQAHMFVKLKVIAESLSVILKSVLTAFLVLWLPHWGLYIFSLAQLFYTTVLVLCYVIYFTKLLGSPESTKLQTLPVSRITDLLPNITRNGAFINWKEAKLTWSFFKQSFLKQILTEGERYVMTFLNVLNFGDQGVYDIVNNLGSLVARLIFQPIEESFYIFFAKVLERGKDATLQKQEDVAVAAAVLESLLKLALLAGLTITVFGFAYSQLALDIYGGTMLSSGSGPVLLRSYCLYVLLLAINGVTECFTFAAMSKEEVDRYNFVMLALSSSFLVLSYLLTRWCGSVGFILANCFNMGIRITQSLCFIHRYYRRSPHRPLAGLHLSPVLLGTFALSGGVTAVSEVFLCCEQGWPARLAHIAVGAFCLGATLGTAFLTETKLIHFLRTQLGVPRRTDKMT
UniProt Q08999: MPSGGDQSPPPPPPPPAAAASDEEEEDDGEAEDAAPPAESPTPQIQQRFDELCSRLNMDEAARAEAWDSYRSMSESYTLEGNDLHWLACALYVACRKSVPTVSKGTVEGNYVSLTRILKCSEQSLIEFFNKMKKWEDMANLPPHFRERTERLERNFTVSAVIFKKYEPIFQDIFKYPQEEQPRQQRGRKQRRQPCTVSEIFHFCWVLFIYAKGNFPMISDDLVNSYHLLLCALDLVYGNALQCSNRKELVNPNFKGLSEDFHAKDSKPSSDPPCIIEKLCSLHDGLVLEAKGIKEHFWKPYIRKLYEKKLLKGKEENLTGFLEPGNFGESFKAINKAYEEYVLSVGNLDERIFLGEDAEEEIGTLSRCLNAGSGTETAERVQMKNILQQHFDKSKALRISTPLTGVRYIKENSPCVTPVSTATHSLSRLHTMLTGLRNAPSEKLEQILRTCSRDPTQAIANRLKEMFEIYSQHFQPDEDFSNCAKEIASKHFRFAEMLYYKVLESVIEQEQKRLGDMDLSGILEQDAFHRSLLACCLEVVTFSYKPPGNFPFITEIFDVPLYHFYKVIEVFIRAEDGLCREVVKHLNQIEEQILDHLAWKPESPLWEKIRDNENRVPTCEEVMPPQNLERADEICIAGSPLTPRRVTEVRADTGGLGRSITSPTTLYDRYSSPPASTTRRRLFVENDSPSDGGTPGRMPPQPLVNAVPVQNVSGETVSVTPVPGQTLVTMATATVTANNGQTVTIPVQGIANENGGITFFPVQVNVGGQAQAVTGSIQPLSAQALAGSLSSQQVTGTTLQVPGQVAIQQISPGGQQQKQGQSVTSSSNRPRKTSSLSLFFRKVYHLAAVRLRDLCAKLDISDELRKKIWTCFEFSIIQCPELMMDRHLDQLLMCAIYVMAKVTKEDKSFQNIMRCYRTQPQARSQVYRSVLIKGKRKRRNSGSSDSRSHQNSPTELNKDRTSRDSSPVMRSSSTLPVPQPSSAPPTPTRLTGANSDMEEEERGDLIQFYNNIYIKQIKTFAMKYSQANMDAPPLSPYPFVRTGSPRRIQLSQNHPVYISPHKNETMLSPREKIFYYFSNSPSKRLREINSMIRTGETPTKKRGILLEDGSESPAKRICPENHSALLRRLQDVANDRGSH
UniProt Q9H1K0: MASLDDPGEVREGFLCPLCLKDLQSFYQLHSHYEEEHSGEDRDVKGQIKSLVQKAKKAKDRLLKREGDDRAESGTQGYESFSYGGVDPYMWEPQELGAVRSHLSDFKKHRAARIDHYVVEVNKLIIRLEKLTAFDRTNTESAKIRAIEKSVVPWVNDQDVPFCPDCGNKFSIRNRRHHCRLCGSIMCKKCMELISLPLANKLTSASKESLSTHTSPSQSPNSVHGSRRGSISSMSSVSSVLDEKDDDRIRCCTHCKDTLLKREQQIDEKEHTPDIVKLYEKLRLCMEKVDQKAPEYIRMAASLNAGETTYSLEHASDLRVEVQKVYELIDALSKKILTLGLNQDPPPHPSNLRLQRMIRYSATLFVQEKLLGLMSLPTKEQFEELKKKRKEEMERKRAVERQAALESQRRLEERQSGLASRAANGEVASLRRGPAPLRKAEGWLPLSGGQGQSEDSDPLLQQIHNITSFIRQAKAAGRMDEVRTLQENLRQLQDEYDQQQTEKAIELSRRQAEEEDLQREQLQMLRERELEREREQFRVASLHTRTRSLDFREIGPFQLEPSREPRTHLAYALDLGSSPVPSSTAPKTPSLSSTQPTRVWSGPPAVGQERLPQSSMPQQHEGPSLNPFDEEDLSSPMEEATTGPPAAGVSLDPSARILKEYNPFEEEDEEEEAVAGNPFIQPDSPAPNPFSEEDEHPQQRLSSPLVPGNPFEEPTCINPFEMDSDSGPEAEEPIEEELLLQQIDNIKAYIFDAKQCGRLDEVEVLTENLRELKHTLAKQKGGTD
UniProt O15211: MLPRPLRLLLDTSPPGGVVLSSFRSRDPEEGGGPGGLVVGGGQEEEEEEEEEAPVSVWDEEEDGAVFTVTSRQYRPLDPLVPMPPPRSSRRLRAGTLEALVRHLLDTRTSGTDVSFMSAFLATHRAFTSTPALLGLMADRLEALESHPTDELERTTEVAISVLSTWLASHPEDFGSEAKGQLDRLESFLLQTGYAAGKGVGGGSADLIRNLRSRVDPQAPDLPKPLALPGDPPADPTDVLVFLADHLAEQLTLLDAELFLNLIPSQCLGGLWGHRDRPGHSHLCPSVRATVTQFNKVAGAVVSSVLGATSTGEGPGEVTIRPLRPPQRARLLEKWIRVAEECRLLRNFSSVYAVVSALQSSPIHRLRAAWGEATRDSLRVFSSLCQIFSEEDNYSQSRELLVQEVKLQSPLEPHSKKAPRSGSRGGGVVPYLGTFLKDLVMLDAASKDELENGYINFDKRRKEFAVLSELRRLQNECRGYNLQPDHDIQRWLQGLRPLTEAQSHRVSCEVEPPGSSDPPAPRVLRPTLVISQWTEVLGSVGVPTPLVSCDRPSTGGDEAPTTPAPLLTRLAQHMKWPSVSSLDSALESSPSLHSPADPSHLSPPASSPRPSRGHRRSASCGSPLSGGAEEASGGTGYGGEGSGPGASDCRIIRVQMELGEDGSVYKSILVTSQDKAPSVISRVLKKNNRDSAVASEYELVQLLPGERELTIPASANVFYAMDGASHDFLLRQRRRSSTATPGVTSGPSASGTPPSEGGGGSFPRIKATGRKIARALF

Tests used:
Test in all cases: log2 fold change, soluble protein after heating vs DMSO (PISA); higher = thermal stabilisation; K562 lysate, 10 uM; active = over 0.2 and 3.5 SD of the protein, either way, in both replicates (recomputed)
[1] = compound: Cc1cn(-c2cc(NC(=O)c3ccc(C)c(Nc4nccc(-c5cccnc5)n4)c3)cc(C(F)(F)F)c2)cn1 [nilotinib]
Procedure, shortened: (§1)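 Following dounce homogenisation of K562 pellets in PBS pH 7.4 with 1 mM MgCl2, crude extract at 1 mg/mL protein was incubated for 30 min with 10 μM compound. Aliquots were then heated for 3 min over 48°C-58°C and pooled, NP-40 was added to 0.5% at 4°C, and soluble protein was recovered as the supernatant at 21,000xg for 90 min. Channel-sum-equalised TMTpro 16plex LC-MS/MS quantified this protein. Each value, from duplicates, is a log-two fold change in thermal stability relative to solvent controls.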

[2] = compound: Cc1nc(Nc2n[nH]c3c2CN(C(=O)N[C@H](CN(C)C)c2ccccc2)C3(C)C)c2sccc2n1
Procedure, shortened: as §1

[3] = compound: Cc1nc(Nc2ncc(C(=O)Nc3c(C)cccc3Cl)s2)cc(N2CCN(CCO)CC2)n1 [dasatinib]
Procedure, shortened: as §1

[4] = compound: Cc1ncc(-c2ccnc(Nc3ccc(S(C)(=O)=O)cc3)n2)n1C(C)C
Procedure, shortened: as §1

[5] = compound: Cn1cc(-c2ccc3c(c2)CCN3C(=O)Cc2cccc(C(F)(F)F)c2)c2c(N)ncnc21
Procedure, shortened: as §1

[6] = compound: Cn1cc(CNCC2CCN(c3ncc(C(=O)NO)cn3)CC2)c2ccccc21 [quisinostat]
Procedure, shortened: as §1

[7] = compound: Cn1cncc1[C@@](N)(c1ccc(Cl)cc1)c1ccc2c(c1)c(-c1cccc(Cl)c1)cc(=O)n2C [tipifarnib]
Procedure, shortened: as §1

[8] = compound: NC(=O)Nc1cc(-c2cccc(F)c2)sc1C(=O)N[C@H]1CCCNC1
Procedure, shortened: as §1

[9] = compound: NC(=O)c1cnc(N[C@@H]2CCCC[C@@H]2N)nc1Nc1cccc(-n2nccn2)c1
Procedure, shortened: as §1

[10] = compound: NC1(c2ccc(-c3nc4ccn5c(=O)[nH]nc5c4cc3-c3ccccc3)cc2)CCC1
Procedure, shortened: as §1

Measured: log2 fold change

RBM6 (UniProt P78332)
inactive: [1] 0.018 | [2] -0.031 | [3] -0.06 | [4] 0.135 | [5] 0.125 | [6] -0.002 | [7] -0.024 | [8] 0.007 | [9] -0.018 | [10] -0.043

RBBP5 isoform 2 (UniProt Q15291)
inactive: [1] -0.156 | [2] 0.19 | [3] -0.04 | [4] -0.28 | [5] 0.018 | [6] -0.071 | [7] -0.048 | [8] 0.043 | [9] 0.129

RFC5 (UniProt P40937)
inactive: [1] 0.005 | [2] 0.001 | [3] -0.06 | [4] -0.005 | [5] 0.025 | [6] -0.078 | [7] -0.023 | [8] 0.074 | [9] 0.025 | [10] -0.02

RBBP8 isoform 2 (UniProt Q99708)
inactive: [1] -0.07 | [2] -0.003 | [3] 0.063 | [4] 0.081 | [5] 0.031 | [6] 0.074 | [7] 0.022 | [8] 0.033 | [9] 0.035 | [10] -0.026

RHAG (UniProt Q02094)
inactive: [1] 0.041 | [2] -0.013 | [3] -0.029 | [4] -0.016 | [5] -0.06 | [6] -0.142 | [7] 0.011 | [8] 0.011 | [9] -0.024 | [10] -0.002

RBM42 (UniProt Q9BTD8)
inactive: [1] 0.102 | [2] -0.039 | [3] -0.021 | [4] 0.009 | [5] -0.039 | [6] -0.033 | [7] 0.073 | [8] -0.022 | [9] -0.049 | [10] 0.004

REEP6 (UniProt Q96HR9)
inactive: [1] 0.058 | [2] 0.1 | [3] 0.204 | [4] 0.041 | [5] 0.009 | [6] -0.072 | [7] 0.001 | [8] -0.03 | [9] 0.155 | [10] -0.023

RCHY1 (UniProt Q96PM5)
inactive: [1] 0.046 | [2] 0.109 | [3] -0.07 | [4] 0.149 | [5] -0.121 | [6] 0.063 | [7] 0.053 | [8] -0.075 | [9] -0.063 | [10] -0.034

RBM23 isoform 2 (UniProt Q86U06)
inactive: [1] 0.172 | [2] 0.021 | [3] -0.004 | [4] -0.065 | [5] -0.061 | [6] -0.047 | [7] -0.168 | [8] -0.024 | [9] -0.056 | [10] 0.021

2 neighbouring records from above, quoted:
REEP6 (UniProt Q96HR9)
inactive: [1] 0.058 | [2] 0.1 | [3] 0.204 | [4] 0.041 | [5] 0.009 | [6] -0.072 | [7] 0.001 | [8] -0.03 | [9] 0.155 | [10] -0.023

RCHY1 (UniProt Q96PM5)
inactive: [1] 0.046 | [2] 0.109 | [3] -0.07 | [4] 0.149 | [5] -0.121 | [6] 0.063 | [7] 0.053 | [8] -0.075 | [9] -0.063 | [10] -0.034

Next part.

RCC1 isoform 2 (UniProt P18754)
inactive: [1] 0.024 | [2] -0.024 | [3] -0.071 | [4] 0.021 | [5] 0.034 | [6] 0.001 | [7] -0.011 | [8] 0.027 | [9] -0.02 | [10] -0.043

RCSD1 (UniProt Q6JBY9)
inactive: [1] -0.037 | [2] 0 | [3] -0.009 | [4] 0.019 | [5] -0.015 | [6] -0.059 | [7] -0.014 | [8] -0.003 | [9] 0 | [10] 0.027

REL isoform 2 (UniProt Q04864)
inactive: [1] 0.009 | [2] -0.032 | [3] -0.015 | [4] -0.041 | [5] 0.056 | [6] -0.005 | [7] 0.014 | [8] 0.005 | [9] -0.009 | [10] -0.017

RBM3 (UniProt P98179)
inactive: [1] 0.063 | [2] -0.064 | [3] -0.015 | [4] 0.018 | [5] -0.107 | [6] 0.134 | [7] 0.047 | [8] 0.001 | [9] -0.034 | [10] 0.12

RFC3 (UniProt P40938)
inactive: [1] 0 | [2] -0.05 | [3] -0.036 | [4] 0.034 | [5] 0.021 | [6] -0.081 | [7] 0.002 | [8] 0.094 | [9] 0.01 | [10] -0.006

RCAN1 (UniProt P53805)
active: [1] -0.457
inactive: [2] 0.008 | [3] 0.023 | [4] -0.055 | [5] 0.038 | [6] -0.217 | [7] 0.131 | [8] 0.117 | [9] 0.088 | [10] 0.036

RFX1 (UniProt P22670)
inactive: [1] 0.008 | [2] -0.032 | [3] -0.014 | [4] 0.022 | [5] 0.054 | [6] -0.026 | [7] 0.031 | [8] 0.015 | [9] -0.032 | [10] 0.001

RB1CC1 (UniProt Q8TDY2)
inactive: [1] 0.027 | [2] 0.037 | [3] 0.004 | [4] 0.03 | [5] -0.008 | [6] -0.1 | [7] -0.014 | [8] 0.065 | [9] 0.003 | [10] -0.009

RASA1 (UniProt P20936)
inactive: [1] -0.011 | [2] 0.015 | [3] 0.01 | [4] 0.027 | [5] 0.034 | [6] -0.01 | [7] 0.03 | [8] 0.036 | [9] 0.007 | [10] -0.028

RFT1 (UniProt Q96AA3)
inactive: [1] 0.021 | [2] -0.034 | [3] 0.008 | [4] -0.024 | [5] 0.02 | [6] -0.065 | [7] -0.042 | [8] -0.037 | [9] 0.023 | [10] -0.008

RBBP7 isoform 2 (UniProt Q16576)
inactive: [1] 0.013 | [2] -0.019 | [3] -0.005 | [4] -0.035 | [5] 0.016 | [6] -0.051 | [7] 0.047 | [8] 0.01 | [9] -0.025 | [10] 0.035

REEP4 (UniProt Q9H6H4)
inactive: [1] 0.08 | [2] -0.048 | [3] -0.063 | [4] 0.042 | [5] -0.012 | [6] 0.053 | [7] -0.038 | [8] -0.035 | [9] 0.032 | [10] -0.009

RBL2 (UniProt Q08999)
inactive: [1] -0.018 | [2] 0.032 | [3] -0.016 | [4] 0.012 | [5] 0.081 | [6] 0.046 | [7] -0.042 | [8] -0.055 | [9] -0.091

RFFL (UniProt Q8WZ73)
inactive: [1] 0.116 | [2] 0.143 | [3] 0.037 | [4] -0.063 | [5] 0.028 | [6] -0.069 | [7] 0.036 | [8] 0.022 | [9] -0.065 | [10] 0.004

RBSN (UniProt Q9H1K0)
inactive: [1] -0.047 | [2] 0.057 | [3] -0.106 | [4] 0.034 | [5] -0.004 | [6] -0.04 | [7] -0.036 | [8] 0.05 | [9] 0.039 | [10] 0.029

RGL2 (UniProt O15211)
inactive: [1] -0.315 | [2] -0.067 | [3] -0.011 | [4] -0.059 | [5] -0.201 | [6] -0.038 | [7] -0.155 | [8] 0.093 | [9] -0.04 | [10] 0.05

RBM38 (UniProt Q9H0Z9)
inactive: [1] -0.041 | [2] 0.016 | [3] -0.244 | [4] 0.054 | [5] -0.008 | [6] 0.013 | [7] 0.006 | [8] 0.036 | [9] 0.067 | [10] 0.021

RAPGEF5, A0A590UJR0
inactive: [1] 0.289 | [2] 0.058 | [3] 0.002 | [4] -0.263 | [5] -0.024 | [6] -0.094 | [7] -0.433 | [8] -0.044 | [9] 0.134 | [10] -0.261

RCOR1 (UniProt Q9UKL0)
inactive: [1] -0.024 | [2] -0.006 | [3] -0.054 | [4] 0.009 | [5] 0.003 | [6] 0.015 | [7] -0.022 | [8] 0.043 | [9] -0.015 | [10] 0.099

RGS10 (UniProt O43665)
inactive: [1] 0.067 | [2] -0.015 | [3] 0.037 | [4] 0.002 | [5] 0.001 | [6] -0.005 | [7] 0.038 | [8] 0.013 | [9] -0.026 | [10] 0.009

RAPGEF6 isoform 4 (UniProt Q8TEU7)
inactive: [1] -0.018 | [2] -0.022 | [3] -0.018 | [4] -0.075 | [5] 0.031 | [6] -0.037 | [7] -0.08 | [8] 0.01 | [9] 0.058 | [10] -0.008
